# Experimental data published in the supplement of paper PMC8728848.
# Some of the results follow.
# How the values were obtained:
# Assay in all cases: glycan array binding signal (z-score within array); higher = stronger binding
# Settings in all cases: glycan notation: IUPAC condensed, linker removed
# [1] = biological target: Neu5Ac(a2-3)Gal(b1-4)GlcNAc(b1-6)GalNAc
# Summary of the method: (§1)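 Glycan array data were curated from 3228 arrays in the Consortium for Functional Glycomics database and kept only where the protein sequence was available. Glycan names were converted to IUPAC-condensed notation, and columns mapping to the same glycan were averaged. The binding signal is a within-array Z-score, averaged across arrays of the same protein sequence at different concentrations or buffers and across linkers. Negative Z-scores can be read as non-binding.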
# [2] = biological target: Neu5Ac(a2-3)Gal(b1-4)GlcNAc(b1-6)[Gal(b1-3)]GalNAc
# Summary of the method: as §1
# [3] = biological target: Neu5Ac(a2-3)Gal(b1-4)GlcNAc(b1-6)[Neu5Ac(a2-3)Gal(b1-3)]GalNAc
# Summary of the method: as §1
# [4] = biological target: Neu5Ac(a2-3)Gal(b1-4)GlcNAc6S
# Summary of the method: as §1
# [5] = biological target: Neu5Ac(a2-3)Gal(b1-4)[Fuc(a1-3)]GlcNAc
# Summary of the method: as §1
# [6] = biological target: Neu5Ac(a2-3)Gal(b1-4)[Fuc(a1-3)]GlcNAc(b1-2)Man
# Summary of the method: as §1
# [7] = biological target: Neu5Ac(a2-3)Gal(b1-4)[Fuc(a1-3)]GlcNAc(b1-3)Gal
# Summary of the method: as §1
# [8] = biological target: Neu5Ac(a2-3)Gal(b1-4)[Fuc(a1-3)]GlcNAc(b1-3)Gal(b1-4)GlcNAc
# Summary of the method: as §1
# [9] = biological target: Neu5Ac(a2-3)Gal(b1-4)[Fuc(a1-3)]GlcNAc(b1-3)Gal(b1-4)[Fuc(a1-3)]GlcNAc(b1-3)Gal(b1-4)[Fuc(a1-3)]GlcNAc
# Summary of the method: as §1
# [10] = biological target: Neu5Ac(a2-3)Gal(b1-4)[Fuc(a1-3)]GlcNAc(b1-3)GalNAc
# Summary of the method: as §1
# [11] = biological target: Neu5Ac(a2-3)Gal(b1-4)[Fuc(a1-3)]GlcNAc(b1-6)[Gal(b1-3)]GalNAc
# Summary of the method: as §1
# [12] = biological target: Neu5Ac(a2-3)Gal(b1-4)[Fuc(a1-3)]GlcNAc(b1-6)[Neu5Ac(a2-3)Gal(b1-3)]GalNAc
# Summary of the method: as §1
# [13] = biological target: Neu5Ac(a2-3)Gal(b1-4)[Fuc(a1-3)]GlcNAc6S
# Summary of the method: as §1
# [14] = biological target: Neu5Ac(a2-3)Gal6S(b1-4)GlcNAc
# Summary of the method: as §1
# [15] = biological target: Neu5Ac(a2-3)Gal6S(b1-4)[Fuc(a1-3)]GlcNAc
# Summary of the method: as §1
# [16] = biological target: Neu5Ac(a2-3)GalNAc
# Summary of the method: as §1
# [17] = biological target: Neu5Ac(a2-3)GalNAc(b1-4)GlcNAc
# Summary of the method: as §1
# [18] = biological target: Neu5Ac(a2-3)[GalNAc(b1-4)]Gal(b1-4)Glc
# Summary of the method: as §1
# [19] = biological target: Neu5Ac(a2-3)[GalNAc(b1-4)]Gal(b1-4)GlcNAc
# Summary of the method: as §1
# [20] = biological target: Neu5Ac(a2-3)[GalNAc(b1-4)]Gal(b1-4)GlcNAc(b1-3)GalNAc
# Summary of the method: as §1
# [21] = biological target: Neu5Ac(a2-3)[Neu5Ac(a2-6)]GalNAc
# Summary of the method: as §1
# [22] = biological target: Neu5Ac(a2-6)Gal
# Summary of the method: as §1
# [23] = biological target: Neu5Ac(a2-6)Gal(b1-3)GlcNAc(b1-3)[Gal(b1-4)GlcNAc(b1-6)]Gal(b1-4)Glc
# Summary of the method: as §1
# [24] = biological target: Neu5Ac(a2-6)Gal(b1-4)Glc
# Summary of the method: as §1
# [25] = biological target: Neu5Ac(a2-6)Gal(b1-4)GlcNAc
# Summary of the method: as §1
# [26] = biological target: Neu5Ac(a2-6)Gal(b1-4)GlcNAc(b1-2)Man
# Summary of the method: as §1
# [27] = biological target: Neu5Ac(a2-6)Gal(b1-4)GlcNAc(b1-2)Man(a1-3)Man(b1-4)GlcNAc(b1-4)GlcNAc
# Summary of the method: as §1
# [28] = biological target: Neu5Ac(a2-6)Gal(b1-4)GlcNAc(b1-2)Man(a1-3)[Gal(b1-4)GlcNAc(b1-2)Man(a1-6)]Man(b1-4)GlcNAc(b1-4)GlcNAc
# Summary of the method: as §1
# [29] = biological target: Neu5Ac(a2-6)Gal(b1-4)GlcNAc(b1-2)Man(a1-3)[GlcNAc(b1-2)Man(a1-6)]Man(b1-4)GlcNAc(b1-4)GlcNAc
# Summary of the method: as §1
# [30] = biological target: Neu5Ac(a2-6)Gal(b1-4)GlcNAc(b1-2)Man(a1-3)[GlcNAc(b1-4)][Neu5Ac(a2-6)Gal(b1-4)GlcNAc(b1-2)Man(a1-6)]Man(b1-4)GlcNAc(b1-4)GlcNAc
# Summary of the method: as §1
# [31] = biological target: Neu5Ac(a2-6)Gal(b1-4)GlcNAc(b1-2)Man(a1-3)[Man(a1-6)]Man(b1-4)GlcNAc(b1-4)GlcNAc
# Summary of the method: as §1
# [32] = biological target: Neu5Ac(a2-6)Gal(b1-4)GlcNAc(b1-2)Man(a1-3)[Neu5Ac(a2-3)Gal(b1-4)GlcNAc(b1-2)Man(a1-6)]Man(b1-4)GlcNAc(b1-4)GlcNAc
# Summary of the method: as §1
# [33] = biological target: Neu5Ac(a2-6)Gal(b1-4)GlcNAc(b1-2)Man(a1-3)[Neu5Ac(a2-6)Gal(b1-4)GlcNAc(b1-2)Man(a1-6)]Man(b1-4)GlcNAc(b1-4)GlcNAc
# Summary of the method: as §1
# [34] = biological target: Neu5Ac(a2-6)Gal(b1-4)GlcNAc(b1-2)Man(a1-3)[Neu5Ac(a2-6)Gal(b1-4)GlcNAc(b1-2)Man(a1-6)]Man(b1-4)GlcNAc(b1-4)[Fuc(a1-6)]GlcNAc
# Summary of the method: as §1
# [35] = biological target: Neu5Ac(a2-6)Gal(b1-4)GlcNAc(b1-2)Man(a1-6)Man(b1-4)GlcNAc(b1-4)GlcNAc
# Summary of the method: as §1
# [36] = biological target: Neu5Ac(a2-6)Gal(b1-4)GlcNAc(b1-2)Man(a1-6)[Gal(b1-4)GlcNAc(b1-2)Man(a1-3)]Man(b1-4)GlcNAc(b1-4)GlcNAc
# Summary of the method: as §1
# [37] = biological target: Neu5Ac(a2-6)Gal(b1-4)GlcNAc(b1-2)Man(a1-6)[GlcNAc(b1-2)Man(a1-3)]Man(b1-4)GlcNAc(b1-4)GlcNAc
# Summary of the method: as §1
# [38] = biological target: Neu5Ac(a2-6)Gal(b1-4)GlcNAc(b1-2)Man(a1-6)[Man(a1-3)]Man(b1-4)GlcNAc(b1-4)GlcNAc
# Summary of the method: as §1
# [39] = biological target: Neu5Ac(a2-6)Gal(b1-4)GlcNAc(b1-2)[Neu5Ac(a2-6)Gal(b1-4)GlcNAc(b1-4)]Man(a1-3)[GlcNAc(b1-4)][Neu5Ac(a2-6)Gal(b1-4)GlcNAc(b1-2)[Neu5Ac(a2-6)Gal(b1-4)GlcNAc(b1-6)]Man(a1-6)]Man(b1-4)GlcNAc(b1-4)GlcNAc
# Summary of the method: as §1
# [40] = biological target: Neu5Ac(a2-6)Gal(b1-4)GlcNAc(b1-2)[Neu5Ac(a2-6)Gal(b1-4)GlcNAc(b1-4)]Man(a1-3)[GlcNAc(b1-4)][Neu5Ac(a2-6)Gal(b1-4)GlcNAc(b1-4)Man(a1-6)]Man(b1-4)GlcNAc(b1-4)GlcNAc
# Summary of the method: as §1
# [41] = biological target: Neu5Ac(a2-6)Gal(b1-4)GlcNAc(b1-2)[Neu5Ac(a2-6)Gal(b1-4)GlcNAc(b1-6)]Man(a1-6)[Neu5Ac(a2-6)Gal(b1-4)GlcNAc(b1-2)Man(a1-3)][GlcNAc(b1-4)]Man(b1-4)GlcNAc(b1-4)GlcNAc
# Summary of the method: as §1
# [42] = biological target: Neu5Ac(a2-6)Gal(b1-4)GlcNAc(b1-3)Gal(b1-3)GlcNAc
# Summary of the method: as §1
# [43] = biological target: Neu5Ac(a2-6)Gal(b1-4)GlcNAc(b1-3)Gal(b1-4)GlcNAc
# Summary of the method: as §1
# [44] = biological target: Neu5Ac(a2-6)Gal(b1-4)GlcNAc(b1-3)Gal(b1-4)GlcNAc(b1-2)Man(a1-3)[Neu5Ac(a2-6)Gal(b1-4)GlcNAc(b1-3)Gal(b1-4)GlcNAc(b1-2)Man(a1-6)]GalNAc
# Summary of the method: as §1
# [45] = biological target: Neu5Ac(a2-6)Gal(b1-4)GlcNAc(b1-3)Gal(b1-4)GlcNAc(b1-3)Gal(b1-4)GlcNAc
# Summary of the method: as §1
binder,measurement,setting,value
RobpsCRA (Robinia pseudoacacia) (protein) IKGGYWYSGSGLAVSDINPSHFTHLFCAFADLDPNTNKLTISSSNAAAFSTFTQTVRAKNPSVKTLLSIGGGGGRALAAVFANMASQASRRKSFIDSSIQLARRNNFHGLDLDWEYPSSDIDKTNFASLIREWRAAVATESSTSGTPALLLSAAVGGSDQITPLKYYPGEAIANNLDWVNVMTYDLYTSDSYPTLTQPPAPLFYPRGIFSADEGITKWIQSGVPESKLALGLPFYGFKWRLSDPNNHGLFAPATQGLGAVKYKDIVNTGGQVEFDSTYVTNYCFKGTDWYGYDDTQSISAKVAYAKQRGLFGYFAWHIEQDSNWALS,glycan array binding signal (z-score),[1],0.15
same,glycan array binding signal (z-score),[2],0.267
same,glycan array binding signal (z-score),[3],-0.478
same,glycan array binding signal (z-score),[4],-0.216
same,glycan array binding signal (z-score),[5],-0.946
same,glycan array binding signal (z-score),[6],-0.889
same,glycan array binding signal (z-score),[7],-0.054
same,glycan array binding signal (z-score),[8],0.659
same,glycan array binding signal (z-score),[9],0.269
same,glycan array binding signal (z-score),[10],1.49
same,glycan array binding signal (z-score),[11],0.26
same,glycan array binding signal (z-score),[12],0.155
same,glycan array binding signal (z-score),[13],0.731
same,glycan array binding signal (z-score),[14],-0.785
same,glycan array binding signal (z-score),[15],-0.829
same,glycan array binding signal (z-score),[16],-0.955
same,glycan array binding signal (z-score),[17],-0.437
same,glycan array binding signal (z-score),[18],0.349
same,glycan array binding signal (z-score),[19],-0.008
same,glycan array binding signal (z-score),[20],0.012
same,glycan array binding signal (z-score),[21],-0.017
same,glycan array binding signal (z-score),[22],1.23
same,glycan array binding signal (z-score),[23],-0.187
same,glycan array binding signal (z-score),[24],-0.332
same,glycan array binding signal (z-score),[25],-0.55
same,glycan array binding signal (z-score),[26],0.007
same,glycan array binding signal (z-score),[27],-0.468
same,glycan array binding signal (z-score),[28],0.444
same,glycan array binding signal (z-score),[29],-0.307
same,glycan array binding signal (z-score),[30],0.988
same,glycan array binding signal (z-score),[31],-0.608
same,glycan array binding signal (z-score),[32],-0.519
same,glycan array binding signal (z-score),[33],0.343
same,glycan array binding signal (z-score),[34],0.574
same,glycan array binding signal (z-score),[35],-0.79
same,glycan array binding signal (z-score),[36],-0.048
same,glycan array binding signal (z-score),[37],-0.328
same,glycan array binding signal (z-score),[38],1.67
same,glycan array binding signal (z-score),[39],0.638
same,glycan array binding signal (z-score),[40],-0.365
same,glycan array binding signal (z-score),[41],0.772
same,glycan array binding signal (z-score),[42],0.116
same,glycan array binding signal (z-score),[43],-0.168
same,glycan array binding signal (z-score),[44],0.109
same,glycan array binding signal (z-score),[45],-0.505

# Random excerpt: four records from the list
binder,measurement,setting,value
RobpsCRA (Robinia pseudoacacia) (protein) IKGGYWYSGSGLAVSDINPSHFTHLFCAFADLDPNTNKLTISSSNAAAFSTFTQTVRAKNPSVKTLLSIGGGGGRALAAVFANMASQASRRKSFIDSSIQLARRNNFHGLDLDWEYPSSDIDKTNFASLIREWRAAVATESSTSGTPALLLSAAVGGSDQITPLKYYPGEAIANNLDWVNVMTYDLYTSDSYPTLTQPPAPLFYPRGIFSADEGITKWIQSGVPESKLALGLPFYGFKWRLSDPNNHGLFAPATQGLGAVKYKDIVNTGGQVEFDSTYVTNYCFKGTDWYGYDDTQSISAKVAYAKQRGLFGYFAWHIEQDSNWALS,glycan array binding signal (z-score),[8],0.659
same,glycan array binding signal (z-score),[37],-0.328
same,glycan array binding signal (z-score),[15],-0.829
same,glycan array binding signal (z-score),[9],0.269
